These are yes or no findings as the source states them, for the method shown. Some entries that bind do so weakly or less than the wild type.
T1: Arx1-TAP (shuttling pre-60S maturation factor Arx1, bait of the tandem affinity purification) (S. cerevisiae (endogenous in the yeast strains)) (UniProt Q03862)
T1 sequence: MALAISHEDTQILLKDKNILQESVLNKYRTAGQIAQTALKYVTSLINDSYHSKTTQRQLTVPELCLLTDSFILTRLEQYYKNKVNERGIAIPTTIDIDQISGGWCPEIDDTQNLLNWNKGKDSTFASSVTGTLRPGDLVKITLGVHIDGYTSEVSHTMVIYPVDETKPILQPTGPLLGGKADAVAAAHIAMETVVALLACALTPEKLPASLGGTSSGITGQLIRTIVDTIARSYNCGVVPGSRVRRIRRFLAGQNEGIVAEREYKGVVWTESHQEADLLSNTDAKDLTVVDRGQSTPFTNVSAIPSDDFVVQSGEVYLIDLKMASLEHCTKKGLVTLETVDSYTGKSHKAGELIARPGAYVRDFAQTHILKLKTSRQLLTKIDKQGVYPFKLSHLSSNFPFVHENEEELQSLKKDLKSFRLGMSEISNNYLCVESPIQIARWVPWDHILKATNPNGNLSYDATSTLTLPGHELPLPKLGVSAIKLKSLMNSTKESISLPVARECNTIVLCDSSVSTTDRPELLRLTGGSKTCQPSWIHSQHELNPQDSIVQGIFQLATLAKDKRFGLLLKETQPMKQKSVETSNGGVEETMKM

Protein sequences, listed by entry. Tags and fused reporters are not part of them.
UniProt Q07915: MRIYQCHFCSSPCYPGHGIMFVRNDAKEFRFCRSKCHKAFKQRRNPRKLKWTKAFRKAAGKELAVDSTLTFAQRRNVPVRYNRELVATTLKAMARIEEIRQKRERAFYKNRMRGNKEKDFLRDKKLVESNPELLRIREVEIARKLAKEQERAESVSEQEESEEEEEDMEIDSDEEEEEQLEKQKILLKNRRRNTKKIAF

B1: Nog1 (protein, UniProt Q02892 1-647)
chain: MQLSWKDIPTVAPANDLLDIVLNRTQRKTPTVIRPGFKITRIRAFYMRKVKYTGEGFVEKFEDILKGFPNINDVHPFHRDLMDTLYEKNHYKISLAAISRAKSLVEQVARDYVRLLKFGQSLFQCKQLKRAALGRMATIVKKLRDPLAYLEQVRQHIGRLPSIDPNTRTLLICGYPNVGKSSFLRCITKSDVDVQPYAFTTKSLYVGHFDYKYLRFQAIDTPGILDRPTEEMNNIEMQSIYAIAHLRSCVLYFMDLSEQCGFTIEAQVKLFHSIKPLFANKSVMVVINKTDIIRPEDLDEERAQLLESVKEVPGVEIMTSSCQLEENVMEVRNKACEKLLASRIENKLKSQSRINNVLNKIHVAQPQARDDVKRTPFIPESVKNLKKYDPEDPNRRKLARDIEAENGGAGVFNVNLKDKYLLEDDEWKNDIMPEILDGKNVYDFLDPEIAAKLQALEEEEEKLENEGFYNSDDEEEIYDGFEASEVDDIKEKAAWIRNRQKTMIAEARNRKSLKNKAIMPRSKLTKSFGKMEEHMSTLGHDMSALQDKQNRAARKNRYVERGSDVVFGDQDALTASTENGVKLRQTDRLLDGVADGSMRSKADRMAKMERRERNRHAKQGESDRHNAVSLSKHLFSGKRGVGKTDFR
B2: Mtr2 (protein, UniProt P34232 1-184)
chain: MNTNSNTMVMNDANQAQITATFTKKILAHLDDPDSNKLAQFVQLFNPNNCRIIFNATPFAQATVFLQMWQNQVVQTQHALTGVDYHAIPGSGTLICNVNCKVRFDESGRDKMGQDATVPIQPNNTGNRNRPNDMNKPRPLWGPYFGISLQLIIDDRIFRNDFNGVISGFNYNMVYKPEDSLLKI
B3: Rpl10 (protein, UniProt P41805 1-221)
chain: MARRPARCYRYQKNKPYPKSRYNRAVPDSKIRIYDLGKKKATVDEFPLCVHLVSNELEQLSSEALEAARICANKYMTTVSGRDAFHLRVRVHPFHVLRINKMLSCAGADRLQQGMRGAWGKPHGLAARVDIGQIIFSVRTKDSNKDVVVEGLRRARYKFPGQQKIILSKKWGFTNLDRPEYLKKREAGEVKDDGAFVKFLSKKGSLENNIREFPEYFAAQA
B4: Mex67 (protein, UniProt Q99257 1-599)
chain: MSGFHNVGNINMMAQQQMQQNRIKISVRNWQNATMNDLINFISRNARVAVYDAHVEGPLVIGYVNSKAEAESLMKWNGVRFAGSNLKFELLDNNGASAGTSDTISFLRGVLLKRYDPQTKLLNLGALHSDPELIQKGVFSSISTQSKMFPAMMKLASTEKSLIVESVNLADNQLKDISAISTLAQTFPNLKNLCLANNQIFRFRSLEVWKNKFKDLRELLMTNNPITTDKLYRTEMLRLFPKLVVLDNVIVRDEQKLQTVYSLPMKIQQFFFENDALGQSSTDFATNFLNLWDNNREQLLNLYSPQSQFSVSVDSTIPPSTVTDSDQTPAFGYYMSSSRNISKVSSEKSIQQRLSIGQESINSIFKTLPKTKHHLQEQPNEYSMETISYPQINGFVITLHGFFEETGKPELESNKKTGKNNYQKNRRYNHGYNSTSNNKLSKKSFDRTWVIVPMNNSVIIASDLLTVRAYSTGAWKTASIAIAQPPQQQASVLPQVASMNPNITTPPQPQPSVVPGGMSIPGAPQGAMVMAPTLQLPPDVQSRLNPVQLELLNKLHLETKLNAEYTFMLAEQSNWNYEVAIKGFQSSMNGIPREAFVQF
B5: Sqt1 (protein, UniProt P35184 1-431)
chain: MEPQEEFITTEEVEQEIVPTVEVEQDVPVDIEGENDDDDEMMNDDEEALEVDMSNNSLTYFDKHTDSVFAIGHHPNLPLVCTGGGDNLAHLWTSHSQPPKFAGTLTGYGESVISCSFTSEGGFLVTADMSGKVLVHMGQKGGAQWKLASQMQEVEEIVWLKTHPTIARTFAFGATDGSVWCYQINEQDGSLEQLMSGFVHQQDCSMGEFINTDKGENTLELVTCSLDSTIVAWNCFTGQQLFKITQAEIKGLEAPWISLSLAPETLTKGNSGVVACGSNNGLLAVINCNNGGAILHLSTVIELKPEQDELDASIESISWSSKFSLMAIGLVCGEILLYDTSAWRVRHKFVLEDSVTKLMFDNDDLFASCINGKVYQFNARTGQEKFVCVGHNMGVLDFILLHPVANTGTEQKRKVITAGDEGVSLVFEVPN

molecular target: T1, Arx1-TAP (shuttling pre-60S maturation factor Arx1, bait of the tandem affinity purification) (S. cerevisiae (endogenous in the yeast strains)); test: tandem affinity purification (TAP) with western blotting; Arx1-TAP as bait; pre-60S particles purified from strains expressing drg1-21, drg1-18 or wildtype DRG1 from their endogenous promoter; cells grown in YPD; elution from calmodulin beads, TCA precipitation, SDS-PAGE and western blot

binding, binds:
Rlp24 (Ribosomal-like protein 24) (from UniProt Q07915 1-199), B1, B2, B3, B4, B5

molecular target: T1, Arx1-TAP (shuttling pre-60S maturation factor Arx1, bait of the tandem affinity purification) (S. cerevisiae (endogenous in the yeast strains)); test: tandem affinity purification (TAP) with western blotting; Arx1-TAP as bait; pre-60S particles purified from DRG1 wildtype strains with plasmids for overexpression of GST-Drg1 or GST-Drg1-21 (CUP1 promoter, 0.5 mM CuSO4, 3 hours) or the empty vector; SDS-PAGE and western blot

binding, binds:
B1, B4

From article PMC5356007, “A conserved inter-domain communication mechanism regulates the ATPase activity of the AAA-protein Drg1” (Scientific Reports, 2017)
